Measured values from article PMC7819943, “Rice protein-binding microarrays: a tool to detect cis-acting elements near promoter regions in rice”.
The list shows a part of the results.

By UniProt entry, the sequences of proteins in these tests, tags left out.
UniProt Q0JBA9, entry or part of it: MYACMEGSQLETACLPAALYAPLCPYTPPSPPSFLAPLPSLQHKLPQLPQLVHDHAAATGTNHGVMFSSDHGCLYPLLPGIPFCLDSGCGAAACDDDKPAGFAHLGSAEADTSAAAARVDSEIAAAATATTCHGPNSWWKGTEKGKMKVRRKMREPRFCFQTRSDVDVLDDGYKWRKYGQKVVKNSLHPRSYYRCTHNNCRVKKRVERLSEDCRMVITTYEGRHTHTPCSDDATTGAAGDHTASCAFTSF

target: OsWRKY34 (Oryza sativa, UniProt Q0JBA9 1-250); assay: protein-binding microarray (RPBM); PBS, 2% BSA, 51.3 ng/ul salmon testes DNA, 50 uM zinc acetate, 200 nM TF, 25 C, 1 h; high values mean tight binding; conditions: protein: recombinant; tags: N-terminal polyhistidine and DsRed monomer fusion (pET32a); label: CyDye5-dUTP incorporated in the synthesized complementary strand; 3' TTTTT single-stranded linker to array surface; dsDNA, one strand shown
Method in brief: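 Polyhistidine-tagged DsRed fusions of transcription factors, joined at the N-terminus, were expressed in E. coli BL21-CodonPlus and isolated on Ni–NTA. They were incubated at 200 nM for 1 h at 25 °C on a custom Agilent array, double-stranded and BSA-blocked, in PBS with 2% BSA, salmon testes DNA and 50 µM zinc acetate. The binding signal is per-feature fluorescence intensity (arbitrary units) read on an Axon 4000B scanner after washing.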

| Sequence | binding signal |
| --- | --- |
| CCTCAAACCCCACGAGTTCTCCGTCAGATTCCGCCGCCACCGGAGTCACCTAGTGCAG | 10700 fluorescence intensity (a.u.) |
| ATTTGGACCACCACGAATGATTTTTTTTCTCATGCAATCACGGAGTCACCTAGTGCAG | 9820 fluorescence intensity (a.u.) |
| ATTCTTCGGTTCTTGCTAATTGGTTGTTTGATCTGGAAGACGGAGTCACCTAGTGCAG | 8760 fluorescence intensity (a.u.) |
| CTTTTCTTCTTTTTTCATATCTCCAAGAATCCTTTCACATCGGAGTCACCTAGTGCAG | 8030 fluorescence intensity (a.u.) |
| AAACTTAATGTTTCACGCTTCATAATTCACAACCTGTCAGCGGAGTCACCTAGTGCAG | 9510 fluorescence intensity (a.u.) |
| GTTTGACCACGCCTTGGCCACTTCCGCTACTCCACTCCACCGGAGTCACCTAGTGCAG | 13100 fluorescence intensity (a.u.) |
| GTTGTGGTCGTTAGCAGGCATTGCTTCCTTTAGGGATTTGCGGAGTCACCTAGTGCAG | 8850 fluorescence intensity (a.u.) |
| AGGCGGCCGCACCCCGTTCACTTCCTTCTTTCTGGCTGCTCGGAGTCACCTAGTGCAG | 8560 fluorescence intensity (a.u.) |
| CATGTTTGCCATCTGTTCTGCTTGCTTTATTTGTGGCCTTCGGAGTCACCTAGTGCAG | 13600 fluorescence intensity (a.u.) |
| AGTTAGTGTGCAGTACTTGCCTTCTCGAGTTCATGGCTTCCGGAGTCACCTAGTGCAG | 8740 fluorescence intensity (a.u.) |
| CTCAGCCACCTCGCCTATATATACATCCCATGCCTAGCTTCGGAGTCACCTAGTGCAG | 11100 fluorescence intensity (a.u.) |
| AGTTCTTGTCACATGCTGCAATTGTTGGGTTTATGGGAGGCGGAGTCACCTAGTGCAG | 8410 fluorescence intensity (a.u.) |
| TTCCCCATCCACACCTCACGGGAAGCTGTCCCTTCTCCTCCGGAGTCACCTAGTGCAG | 10700 fluorescence intensity (a.u.) |
| AGGATTTTTTTTTCTGCATGTGTTTTTTGTTATCTTTACACGGAGTCACCTAGTGCAG | 9660 fluorescence intensity (a.u.) |
| TTACACATTTCTTTAAAACTTGTATACACTTCACTTGTTTCGGAGTCACCTAGTGCAG | 9800 fluorescence intensity (a.u.) |
| TTTAAGCACAACTTTTCGTTTTTTATATTTGCACAAGTTTCGGAGTCACCTAGTGCAG | 8940 fluorescence intensity (a.u.) |
| TTTTTATGTTTTTCCTGCGGTCCAATCAAACGGCCATTCACGGAGTCACCTAGTGCAG | 12000 fluorescence intensity (a.u.) |
| GGGAGGCGGGGAGTTGCTGCCAACACCAGGGGAGGGAAGCCGGAGTCACCTAGTGCAG | 12100 fluorescence intensity (a.u.) |
| CAAGCTTTAGCCTCCGGCCCGTGCTTCTCCAACTCGCTCTCGGAGTCACCTAGTGCAG | 8660 fluorescence intensity (a.u.) |
| TATACACCACGTTTGCTGGCTTGGCTTCCTTCCACACTCCCGGAGTCACCTAGTGCAG | 8160 fluorescence intensity (a.u.) |
| TCCGGGACTGGTTTCCTCTCCCTTTTTGTTGGTCTCTGTTCGGAGTCACCTAGTGCAG | 10600 fluorescence intensity (a.u.) |
| ACCTCCACGCACCACCGCATCTCCGCCTAGGGTTTCCTCCCGGAGTCACCTAGTGCAG | 8870 fluorescence intensity (a.u.) |
| GCTCTCCTGCCCTGCCTCGTCTCCTCCGCTCAGCTCAGCTCGGAGTCACCTAGTGCAG | 9580 fluorescence intensity (a.u.) |

Already shown: entries from further up.

| Sequence | binding signal |
| --- | --- |
| CCTCAAACCCCACGAGTTCTCCGTCAGATTCCGCCGCCACCGGAGTCACCTAGTGCAG | 10700 fluorescence intensity (a.u.) |
| ATTTGGACCACCACGAATGATTTTTTTTCTCATGCAATCACGGAGTCACCTAGTGCAG | 9820 fluorescence intensity (a.u.) |
| ATTCTTCGGTTCTTGCTAATTGGTTGTTTGATCTGGAAGACGGAGTCACCTAGTGCAG | 8760 fluorescence intensity (a.u.) |
| CTTTTCTTCTTTTTTCATATCTCCAAGAATCCTTTCACATCGGAGTCACCTAGTGCAG | 8030 fluorescence intensity (a.u.) |
| AAACTTAATGTTTCACGCTTCATAATTCACAACCTGTCAGCGGAGTCACCTAGTGCAG | 9510 fluorescence intensity (a.u.) |
